These are literature values, as cited in US20180325164A1, “LIQUID FORMULATION” (JAYTEE BIOSCIENCES LIMITED, priority 2015, published 2018).

As for `C=C(C)[C@@H]1CCC(C)=C[C@H]1c1c(O)cc(CCCCC)cc1O` [CBD, 2-[(1R, 6R)-6-isopropenyl-3-methylcyclohex-2-en-1yl]-5-pentylbenzene-1,3-diol], the “solubility in organic solvents” value (organic solvents, including propylene glycol) is given as “soluble”. Moreover, for the setting “water”, the solubility in water entry is recorded as “largely insoluble”.
